Laboratory results reported in paper PMC3265533.
No constants are given. Whether binding was seen depends on the method and setting. In cells and extracts the contact can be indirect. Some entries that bind do so weakly or less than the wild type.

The chains behind the UniProt entries cited, without tags or fusion partners.
UniProt P13051: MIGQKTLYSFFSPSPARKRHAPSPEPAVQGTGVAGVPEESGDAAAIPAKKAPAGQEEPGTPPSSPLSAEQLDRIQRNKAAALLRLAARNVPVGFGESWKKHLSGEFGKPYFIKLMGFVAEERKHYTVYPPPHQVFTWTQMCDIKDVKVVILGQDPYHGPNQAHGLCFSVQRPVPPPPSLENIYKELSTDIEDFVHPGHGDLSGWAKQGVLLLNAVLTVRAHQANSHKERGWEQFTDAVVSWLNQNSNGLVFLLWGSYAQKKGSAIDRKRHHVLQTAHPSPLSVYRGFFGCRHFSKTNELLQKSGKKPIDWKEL
UniProt Q16531: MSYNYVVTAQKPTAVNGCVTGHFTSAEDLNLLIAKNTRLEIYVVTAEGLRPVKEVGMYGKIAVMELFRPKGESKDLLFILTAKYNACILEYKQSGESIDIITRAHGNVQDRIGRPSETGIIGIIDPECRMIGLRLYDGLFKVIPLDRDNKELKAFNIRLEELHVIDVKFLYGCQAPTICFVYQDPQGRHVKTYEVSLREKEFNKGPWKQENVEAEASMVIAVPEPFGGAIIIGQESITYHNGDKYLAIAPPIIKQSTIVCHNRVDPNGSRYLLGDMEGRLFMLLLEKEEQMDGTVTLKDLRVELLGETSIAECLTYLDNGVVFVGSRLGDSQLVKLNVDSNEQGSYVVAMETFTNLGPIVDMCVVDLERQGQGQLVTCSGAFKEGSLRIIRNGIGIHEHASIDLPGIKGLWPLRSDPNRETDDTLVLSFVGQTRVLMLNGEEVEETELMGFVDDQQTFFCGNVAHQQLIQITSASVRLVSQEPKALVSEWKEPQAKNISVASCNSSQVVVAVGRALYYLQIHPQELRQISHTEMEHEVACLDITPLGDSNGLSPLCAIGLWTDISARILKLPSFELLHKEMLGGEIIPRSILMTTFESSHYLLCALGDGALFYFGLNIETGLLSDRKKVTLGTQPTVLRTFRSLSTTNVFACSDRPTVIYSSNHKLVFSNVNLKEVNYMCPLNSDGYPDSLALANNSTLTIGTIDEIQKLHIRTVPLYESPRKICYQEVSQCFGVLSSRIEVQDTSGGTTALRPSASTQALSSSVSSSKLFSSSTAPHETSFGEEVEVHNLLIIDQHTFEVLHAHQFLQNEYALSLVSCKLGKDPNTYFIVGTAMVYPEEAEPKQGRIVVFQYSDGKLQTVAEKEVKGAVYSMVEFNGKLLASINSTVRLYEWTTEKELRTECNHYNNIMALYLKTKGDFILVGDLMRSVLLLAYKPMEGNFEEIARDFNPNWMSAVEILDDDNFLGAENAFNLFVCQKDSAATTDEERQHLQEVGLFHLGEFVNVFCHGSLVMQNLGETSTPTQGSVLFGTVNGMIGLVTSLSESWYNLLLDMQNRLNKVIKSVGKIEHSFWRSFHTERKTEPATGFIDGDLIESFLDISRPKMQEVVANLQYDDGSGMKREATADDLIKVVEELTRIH

Biological target: UNG2–2HA (uracil DNA glycosylase 2 with two HA epitope tags at the carboxy-terminus) (UniProt P13051)
Experiment: co-IP; 293T HEK cells transfected with UNG2–2HA, with empty vector or HIV1 FLAG–Vpr; MG132 for 8 hours before harvest; lysed in ELB buffer; anti-HA agarose beads; eluted with HA peptide; immunoblot for DCAF1, DDB1, HA and FLAG; control: UNG2–myc

binding: binds
Substance: DDB1 (endogenous) (from UniProt Q16531 1-1140)
